Results as given in the supplement of paper PMC8256030.
Where “and” joins values, the source holds several entries; their conditions need not be identical. Identical values can stand only once. Counter-ions that a name gives are not always drawn. The list shows a part of the results. Single values are uncertain here, since repeats match poorly.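 HEK293T cells were given each compound shortly before transfection with a reporter in which red mCherry is followed by the SARS-CoV-2 frameshift element and then GFP in the −1 frame, so GFP appears only after frameshifting.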

How the values were obtained:
HEK293T = experiment: percent viability (nuclei count) relative to control; higher = more viable cells; details: 10 µM; 24 h
[1] = test system: SARS-CoV-2 -1 PRF reporter mCherry-FSE-GFP(-1); experiment: mCherry (red) intensity as percent of control; higher = higher upstream reporter expression; details: 10 µM; 24 h; HEK293T
[2] = test system: SARS-CoV-2 -1 PRF reporter mCherry-FSE-GFP(-1); experiment: percent effect, decrease of GFP/mCherry ratio (-1 PRF reporter) relative to controls; higher = stronger frameshift inhibition; details: 10 µM; 24 h; HEK293T

Row | Compound | percent viability (HEK293T) | mCherry [1] | percent effect [2]
1 | CCC1(c2ccccc2)C(=O)NC(=O)NC1=O [phenobarbital] | 274% and 142% | 90.5% and 88.4% | -6.33% and -2.28%
2 | CN[C@@H](C)Cc1ccccc1 [metamfetamine] | 37.4% | 97.8% | -0.746%
3 | CN1C(=O)CN=C(c2ccccc2F)c2cc([N+](=O)[O-])ccc21 [flunitrazepam] | 319% | 102% | -4.15%
4 | CN(C(=O)CNC(=O)[C@@H](N)CCCCN)c1ccc(Cl)cc1C(=O)c1ccccc1 [avizafone] | 295% | 76.6% | 0.365%
5 | Oc1cc(Cl)ccc1Oc1ccc(Cl)cc1Cl [triclosan] | 214% | 75.6% | -4.21%
6 | O=[N+]([O-])c1cc([As](=O)(O)O)ccc1O [roxarsone] | 184% | 105% | -0.0383%
7 | CN1CCN(C(=O)OC2c3nccnc3C(=O)N2c2ccc(Cl)cn2)CC1 (stereo not given) [zopiclone] | 204% | 113% | -2.49%
8 | C=CCC1(CC(C)C)C(=O)NC(=O)NC1=O [butalbital] | 321% | 84.3% | -1.17%
9 | CCCCNC(=O)OCC(C)(CCC)COC(N)=O (stereo not given) [tybamate] | 137% | 93.4% | -5.14%
10 | C[N+]12CCC(CC1)C(OC(=O)C(O)(c1ccccc1)c1ccccc1)C2 (stereo not given) [clidinium bromide] | 120% | 103% | 1.65%
11 | CCC[C@@H]1CC(=O)N([C@@H](CC)C(N)=O)C1 [brivaracetam] | 146% | 80% | -3.5%
12 | Cc1cccc([C@H](C)c2c[nH]cn2)c1C [Precedex] | 141% | 83.9% | -6.89%
13 | CCC(COC(=O)c1cc(OC)c(OC)c(OC)c1)(c1ccccc1)N(C)C (stereo not given) | 131% | 95.2% | -4.43%
14 | O=C1CN=C(c2ccccc2Cl)c2cc([N+](=O)[O-])ccc2N1 [clonazepam] | 323% | 136% | 11.3%
15 | CC(CCc1ccccc1)NC(C)C(O)c1ccc(O)cc1 (stereo not given) [buphenine] | 259% and 190% | 95.1% and 80.4% | -4.4% and 0.55%
16 | O=c1[nH]oc2c1CCNC2 | 312% | 95.4% | 2.71%
17 | CN1C[C@H](C(=O)N[C@]2(C)O[C@@]3(O)[C@@H]4CCCN4C(=O)[C@H](Cc4ccccc4)N3C2=O)C[C@@H]2c3cccc4[nH]cc(c34)C[C@H]21 [Dihydroergotamine mesylate] | 263% | 76.7% | -4.83%
18 | CCCC(=O)OCC[N+](C)(C)C [Butyrylcholine] | 225% | 88.6% | 2.4%
19 | c1ccc2c(c1)Nc1ccccc1S2 [phenothiazine] | 85.6% | 88.1% | -10.2%
20 | CCOC(=O)[C@H]1[C@@H](OC(=O)c2ccccc2)C[C@@H]2CC[C@H]1N2C | 207% | 76.2% | -2.23%
21 | CCCN(CCC)C(=O)Cc1c(-c2ccc(Cl)cc2)nc2ccc(Cl)cn12 [alpidem] | 180% | 60.5% | -4.67%
22 | Cc1nnc2n1-c1sc(CCC(=O)N3CCOCC3)cc1C(c1ccccc1Cl)=NC2 [apafant] | 162% | 78.9% | -1.08%
23 | NP(N)(=O)NC(=O)c1ccc(F)cc1 [flurofamide] | 136% | 80.6% | 1.5%
24 | C[C@@H](N)Cc1ccccc1 [levamfetamine] | 231% | 88.6% | -1.28%

Row | Compound | percent viability (HEK293T) | mCherry [1] | percent effect [2]
25 | Cc1ccccc1-n1c(/C=C/c2ccccn2)nc2ccccc2c1=O [piriqualone] | 85.7% | 65.6% | -9.68%
26 | C[N+](C)(C)CCCCCCCCCC[N+](C)(C)C [decamethonium bromide] | 214% and 123% | 90.4% and 89.8% | 0.101% and -7.81%
27 | CCN(C)C(C)C(O)c1ccccc1 (stereo not given) [etafedrine] | 317% | 57.2% | 1.4%
28 | CCCC(C)(COC(N)=O)COC(=O)NC1CC1 (stereo not given) [lorbamate] | 155% | 84% | -3.41%
29 | C=C[C@H]1CN2CC[C@H]1C[C@H]2[C@H](OC(=O)OCC)c1ccnc2ccc(OC)cc12 | 327% | 101% | -0.236%
30 | CCOc1ccc(C(C)(C)COCc2cccc(Oc3ccccc3)c2)cc1 [etofenprox] | 202% | 99.9% | -2.95%
31 | O=C1NCN(c2ccccc2)C12CCN(CC1COc3ccccc3O1)CC2 (stereo not given) [spiroxatrine] | 146% | 93.9% | -4.62%
32 | CC(C)=CC1C(C(=O)OCc2cccc(Oc3ccccc3)c2)C1(C)C (stereo not given) [phenothrin] | 126% | 109% | -0.393%
33 | CC(C)(O)C(Cl)(Cl)Cl | 340% | 107% | -1.77%
34 | CC(C)[N+](C)(CCC(C(N)=O)(c1ccccc1)c1ccccc1)C(C)C [isopropamide iodide] | 154% | 109% | -8.69%
35 | CCC(C)(C)O | 381% | 102% | -0.918%
36 | CO[C@@]12CC[C@@]3(C[C@@H]1[C@](C)(O)C(C)(C)C)[C@H]1Cc4ccc(O)c5c4[C@@]3(CCN1CC1CC1)[C@H]2O5 [Buprenex] | 256% | 80% | -0.147%
37 | C=CCC1(C(C)CCC)C(=O)NC(=S)NC1=O (stereo not given) | 140% | 113% | -5.58%
38 | O=[N+]([O-])O[C@@H]1CO[C@H]2[C@@H]1OC[C@@H]2O [isosorbide mononitrate] | 187% | 105% | -1.89%
39 | Cc1c(N)nc(C(CC(N)=O)NCC(N)C(N)=O)nc1C(=O)NC(C(=O)NC(C)C(O)C(C)C(=O)NC(C(=O)NCCc1nc(-c2nc(C(=O)NCCC[S+](C)C)cs2)cs1)C(C)O)C(O[C@@H]1O[C@@H](CO)[C@@H](O)[C@H](O)[C@@H]1O[C@H]1O[C@H](CO)[C@@H](O)[C@H](OC(N)=O)[C@@H]1O)c1cnc[nH]1 (stereo not given in full) | 153% | 239% | 6.77%
40 | CNCC(C)c1ccccc1 (stereo not given) [phenpromethamine] | 273% | 107% | -2.6%
41 | Cc1nnc2n1-c1ccc(Cl)cc1C(c1ccccc1)=NC2 [alprazolam] | 31.1% | 84.8% | -9.92%
42 | OCCN(CCO)CCO [trolamine] | 247% | 56% | 2.93%
43 | CNC(=O)Oc1ccccc1C(=O)Nc1ccccc1 [anilamate] | 130% | 80.2% | -6.66%
44 | C[C@@H]1CC[C@H]2[C@@H](C)C(=O)O[C@@H]3O[C@@]4(C)CC[C@@H]1[C@]32OO4 | 201% | 112% | -1.66%
45 | Cc1ncc[nH]1.ClCC1CO1 [colestilan] | 64.5% | 71.5% | -4.17%
46 | c1ccc(C2(c3ccccc3)CC2C2=NCCN2)cc1 (stereo not given) [cibenzoline] | 132% | 80.1% | 1.11%
47 | O=C1CN=C(c2ccccc2)c2cc([N+](=O)[O-])ccc2N1 [nitrazepam] | 275% | 99.9% | -3.04%
48 | C1CCc2nnnn2CC1 [pentetrazol] | 150% | 102% | -11.8%

Row | Compound | percent viability (HEK293T) | mCherry [1] | percent effect [2]
49 | O=C1CN=C(c2ccccc2)c2c(sc3c2CCCC3)N1 [bentazepam] | 39.6% | 84.1% | -6.82%
50 | CCC(=O)O[C@](Cc1ccccc1)(c1ccccc1)[C@H](C)CN(C)C [dextropropoxyphene] | 333% | 95.5% | -1.04%
51 | CN(C)[C@@H]1C(=O)C(C(N)=O)=C(O)[C@@]2(O)C(=O)C3=C(O)c4c(O)ccc(Cl)c4[C@@](C)(O)[C@H]3C[C@@H]12 | 117% | 117% | -0.724%
52 | CN=C1CN(O)C(c2ccccc2)=c2cc(Cl)ccc2=N1 [chlordiazepoxide] | 175% | 93.8% | 1.99%
53 | CC(OC(N)=O)C(C)C(C)OC(N)=O (stereo not given) [pentabamate] | 50.2% | 85% | -4.58%
54 | CN1C[C@H](CNC(=O)OCc2ccccc2)C[C@@H]2c3cccc4c3c(cn4C)C[C@H]21 | 607% | 127% | 4.12%
55 | CN1C2CC(OC(=O)C(CO)c3ccccc3)CC1C(O)C2 (stereo not given) | 261% | 103% | 3.38%
56 | CCCC(C)C1(CC)C(=O)NC(=S)NC1=O (stereo not given) [Trapanal] | 305% | 95.4% | -4.5%
57 | CC[C@H]1CN2CC[C@H]1C[C@@H]2[C@@H](O)c1ccnc2ccc(OC)cc12 | 287% | 104% | 2.68%
58 | C=CC[C@]1(O)CC[C@H]2[C@@H]3CCC4=CC(=O)CCC4=C3C=C[C@@]21C [altrenogest] | 175% | 86.4% | -0.236%
59 | CC(=O)Nc1cc([As](=O)(O)O)ccc1O [acetarsol] | 279% | 128% | -3.76%
60 | C[C@@H]1C[C@@H]([C@H](O)CC2CC(=O)NC(=O)C2)C(=O)[C@@H](C)C1 [cicloheximide] | 25.2% | 17.5% | -12.4%
61 | CN1CCN=C(c2ccccc2)c2cc(Cl)ccc21 [medazepam] | 314% | 89.3% | -3.7%
62 | COP(=O)(OC)C(O)C(Cl)(Cl)Cl (stereo not given) [metrifonate] | 167% | 100% | -7.98%
63 | C[C@]12CC[C@H]3[C@@H](CC[C@@]45O[C@@H]4C(O)=C(C#N)C[C@]35C)[C@@H]1CC[C@@H]2O [trilostane] | 117% | 91.8% | -2.44%
64 | O=[N+]([O-])C(Br)(CO)CO [bronopol] | 283% | 101% | 1.14%
65 | CN1[C@H]2CC[C@@H]1[C@@H](C(=O)O)[C@@H](O)C2 | 310% | 86.4% | -0.776%
66 | CCCCCc1cc(O)c2c(c1)OC(C)(C)c1ccc(C)cc1-2 [cannabinol] | 124% | 88.1% | -2.26%
67 | C[C@]12CCC(=O)C[C@@H]1CC[C@@H]1[C@@H]2CC[C@]2(C)[C@@H](O)CC[C@@H]12 [androstanolone] | 149% | 80.4% | -3.86%
68 | CN1C[C@@H](NS(=O)(=O)N(C)C)C[C@@H]2c3cccc4c3c(cn4C)C[C@H]21 [mesulergine] | 318% | 83.6% | -2.89%
69 | Nc1ccncc1 [fampridine] | 245% | 114% | 1.52%
70 | C=CCN1CC[C@]23c4c5ccc(O)c4O[C@H]2/C(=N/N=C2\CC[C@@]4(O)[C@H]6Cc7ccc(O)c8c7[C@@]4(CCN6CC=C)[C@H]2O8)CC[C@@]3(O)[C@H]1C5 [Naloxonazine] | 226% | 78% | -1.17%
